Results from PMC2222954.

T1: human TRIM15 (untagged) (human) (UniProt Q9C019)
T1 sequence: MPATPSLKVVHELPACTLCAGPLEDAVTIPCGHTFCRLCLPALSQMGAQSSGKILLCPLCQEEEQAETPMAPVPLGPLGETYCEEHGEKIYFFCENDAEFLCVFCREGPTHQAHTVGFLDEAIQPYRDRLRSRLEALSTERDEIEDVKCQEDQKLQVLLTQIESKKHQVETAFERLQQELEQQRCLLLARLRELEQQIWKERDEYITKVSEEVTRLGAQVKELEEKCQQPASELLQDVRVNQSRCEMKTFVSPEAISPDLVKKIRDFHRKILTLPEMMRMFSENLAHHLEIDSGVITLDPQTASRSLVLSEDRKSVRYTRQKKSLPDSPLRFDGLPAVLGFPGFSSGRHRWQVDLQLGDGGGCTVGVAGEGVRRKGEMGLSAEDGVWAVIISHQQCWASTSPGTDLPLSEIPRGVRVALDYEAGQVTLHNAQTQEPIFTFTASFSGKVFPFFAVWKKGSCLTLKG

B1: TRIM15 B-box-YFP (domain or fragment, UniProt Q9C019 64-129)
chain: EQAETPMAPVPLGPLGETYCEEHGEKIYFFCENDAEFLCVFCREGPTHQAHTVGFLDEAIQPYRDR
B2: TRIM15 BCPS-YFP (domain or fragment, UniProt Q9C019 65-465)
chain: QAETPMAPVPLGPLGETYCEEHGEKIYFFCENDAEFLCVFCREGPTHQAHTVGFLDEAIQPYRDRLRSRLEALSTERDEIEDVKCQEDQKLQVLLTQIESKKHQVETAFERLQQELEQQRCLLLARLRELEQQIWKERDEYITKVSEEVTRLGAQVKELEEKCQQPASELLQDVRVNQSRCEMKTFVSPEAISPDLVKKIRDFHRKILTLPEMMRMFSENLAHHLEIDSGVITLDPQTASRSLVLSEDRKSVRYTRQKKSLPDSPLRFDGLPAVLGFPGFSSGRHRWQVDLQLGDGGGCTVGVAGEGVRRKGEMGLSAEDGVWAVIISHQQCWASTSPGTDLPLSEIPRGVRVALDYEAGQVTLHNAQTQEPIFTFTASFSGKVFPFFAVWKKGSCLTLKG
B3: TRIM15 CPS-YFP (domain or fragment, UniProt Q9C019 120-465)
chain: DEAIQPYRDRLRSRLEALSTERDEIEDVKCQEDQKLQVLLTQIESKKHQVETAFERLQQELEQQRCLLLARLRELEQQIWKERDEYITKVSEEVTRLGAQVKELEEKCQQPASELLQDVRVNQSRCEMKTFVSPEAISPDLVKKIRDFHRKILTLPEMMRMFSENLAHHLEIDSGVITLDPQTASRSLVLSEDRKSVRYTRQKKSLPDSPLRFDGLPAVLGFPGFSSGRHRWQVDLQLGDGGGCTVGVAGEGVRRKGEMGLSAEDGVWAVIISHQQCWASTSPGTDLPLSEIPRGVRVALDYEAGQVTLHNAQTQEPIFTFTASFSGKVFPFFAVWKKGSCLTLKG
B4: TRIM15-YFP (protein, UniProt Q9C019 1-465)
chain: T1 sequence
B5: TRIM15 RBC-YFP (domain or fragment, UniProt Q9C019 1-345)
chain: MPATPSLKVVHELPACTLCAGPLEDAVTIPCGHTFCRLCLPALSQMGAQSSGKILLCPLCQEEEQAETPMAPVPLGPLGETYCEEHGEKIYFFCENDAEFLCVFCREGPTHQAHTVGFLDEAIQPYRDRLRSRLEALSTERDEIEDVKCQEDQKLQVLLTQIESKKHQVETAFERLQQELEQQRCLLLARLRELEQQIWKERDEYITKVSEEVTRLGAQVKELEEKCQQPASELLQDVRVNQSRCEMKTFVSPEAISPDLVKKIRDFHRKILTLPEMMRMFSENLAHHLEIDSGVITLDPQTASRSLVLSEDRKSVRYTRQKKSLPDSPLRFDGLPAVLGFPGFS
B6: TRIM15 R-CPS-YFP (protein, UniProt Q9C019)
chain: MPATPSLKVVHELPACTLCAGPLEDAVTIPCGHTFCRLCLPALSQMGAQSSGKILLCPLCQEEEQAETPMAPVPLGPLGEDEAIQPYRDRLRSRLEALSTERDEIEDVKCQEDQKLQVLLTQIESKKHQVETAFERLQQELEQQRCLLLARLRELEQQIWKERDEYITKVSEEVTRLGAQVKELEEKCQQPASELLQDVRVNQSRCEMKTFVSPEAISPDLVKKIRDFHRKILTLPEMMRMFSENLAHHLEIDSGVITLDPQTASRSLVLSEDRKSVRYTRQKKSLPDSPLRFDGLPAVLGFPGFSSGRHRWQVDLQLGDGGGCTVGVAGEGVRRKGEMGLSAEDGVWAVIISHQQCWASTSPGTDLPLSEIPRGVRVALDYEAGQVTLHNAQTQEPIFTFTASFSGKVFPFFAVWKKGSCLTLKG

Biological target: T1, human TRIM15 (untagged) (human)
Test: co-IP; HEK293 cells co-transfected, lysed 48 h later in triple detergent lysis buffer (100 mM Tris pH 8.0, 1% Triton-X-100, 0.5% sodium deoxycholate, 0.2% SDS, 150 mM NaCl); precipitated on protein-G beads with antibodies to TRIM15, isotype specific antibodies as control; western blot with antibodies to GFP to detect MLV Gag-GFP

Molecule | binding
MLV Gag-GFP | binds

Biological target: MLV Gag precursor protein (from the full length Friend MLV genome) (Friend 57 murine leukemia virus)
Test: co-IP; HEK293 cells co-transfected, lysed 48 h later in triple detergent lysis buffer (100 mM Tris pH 8.0, 1% Triton-X-100, 0.5% sodium deoxycholate, 0.2% SDS, 150 mM NaCl); precipitated on protein-G beads with antibodies to MLV capsid, isotype specific antibodies as control; western blot with antibodies to GFP to detect TRIM15-YFP derivatives

Molecule | binding
B1 | binds
B2 | binds
B3 | no binding
B4 | binds
B5 | binds
B6 | no binding

These are yes or no findings as the source states them, for the method shown. In cells and extracts the contact can be indirect. A result given as binding can be weak or reduced; the word gives no strength. Tags and fused reporters may be left off the sequences shown.
